Source: patent publication US9700516B2, “Compositions and methods for reducing overdose” (priority 2014, dated 2017)
Some results were stated once for a whole list of compounds, not compound by compound. At least one structure is not confirmed: it was looked up by name or label, or the drawing left a doubt.

Experiment: Effect of alkalinizing agents on the pH of a solution of 0.1 N HCl with a starting pH of 2.0
Type: physicochemical
Settings: all tested amounts; over the times tested
Procedure: Various alkalinizing agents were added to a solution of 0.1 N HCl with a starting pH of 2.0 and the pH of the solution was tested at different time points.

Compound: [O]=[Mg] [MgO, magnesium oxide]
- pH of the solution: above 2.0
